From article PMC9796023, “In vivo and in vitro characterization of GL0034, a novel long‐acting glucagon‐like peptide‐1 receptor agonist” (Diabetes, Obesity & Metabolism, 2022)
These are yes or no findings as the source states them, for the method shown. In cells and extracts the contact can be indirect. Some binding calls cover weakened binding; strength is not graded here.

The chains behind the UniProt entries cited, without tags or fusion partners. Residues count along the entry.
UniProt P43220, residues 24-463: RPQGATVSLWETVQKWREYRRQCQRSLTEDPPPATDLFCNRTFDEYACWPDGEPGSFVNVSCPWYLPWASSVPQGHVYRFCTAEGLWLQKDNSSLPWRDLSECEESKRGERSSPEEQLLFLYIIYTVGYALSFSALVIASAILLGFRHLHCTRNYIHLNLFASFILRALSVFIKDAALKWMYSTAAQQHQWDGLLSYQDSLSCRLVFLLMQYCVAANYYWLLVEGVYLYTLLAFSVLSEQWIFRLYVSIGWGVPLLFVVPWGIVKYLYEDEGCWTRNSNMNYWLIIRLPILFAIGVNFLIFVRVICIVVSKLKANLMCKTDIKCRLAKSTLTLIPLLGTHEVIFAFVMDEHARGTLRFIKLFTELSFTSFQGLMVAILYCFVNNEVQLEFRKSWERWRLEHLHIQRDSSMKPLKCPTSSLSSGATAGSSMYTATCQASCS
UniProt P32121: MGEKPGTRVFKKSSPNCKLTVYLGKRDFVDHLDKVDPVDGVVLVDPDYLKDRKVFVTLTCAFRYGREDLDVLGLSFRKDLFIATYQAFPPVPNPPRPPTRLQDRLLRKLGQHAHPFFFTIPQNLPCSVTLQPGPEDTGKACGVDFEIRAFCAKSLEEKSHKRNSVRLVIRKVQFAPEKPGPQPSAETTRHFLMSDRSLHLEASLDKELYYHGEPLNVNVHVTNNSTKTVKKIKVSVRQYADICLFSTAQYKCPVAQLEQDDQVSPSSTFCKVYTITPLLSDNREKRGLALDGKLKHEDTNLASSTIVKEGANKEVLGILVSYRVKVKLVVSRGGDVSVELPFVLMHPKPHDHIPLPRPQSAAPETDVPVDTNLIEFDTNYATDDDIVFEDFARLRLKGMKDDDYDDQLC

Biological target: GLP-1R in PathHunter CHO-K1-βarr2-EA-GLP-1R cells (UniProt P43220)
Test: split reporter; PathHunter CHO-K1-βarr2-EA-GLP-1R cells stimulated with agonist (semaglutide or GL0034) for 30 minutes at 37°C in Ham's F12 without FBS; luminescence after lysis with PathHunter detection reagents

## β-arrestin-2 (βarr2-EA) in PathHunter CHO-K1-βarr2-EA-GLP-1R cells (from UniProt P32121 1-409)
  binding: binds
